# Structures can show the parent of a compound that is named as a salt. The list shows a part of the results. Single values are uncertain here, since repeats match poorly.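 Human U-2 OS cells stably expressing a GFP sensor with a nuclear import signal and classical export signal were transfected to produce PR50, a 50-repeat proline–arginine dipeptide from ALS/FTD gene C9ORF72. Nuclear-minus-cytoplasm GFP was scaled from DMSO (low) to PR-only (high), scored against plate test wells; strongly negative scores marked PR-reversing hits.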
# System: U-2 OS NCT-C biosensor cells expressing PR50
# Assay: Z-score of normalised NCT-C biosensor translocation index in PR50-expressing cells; higher = more nuclear biosensor (more disrupted nuclear export)
# Conditions: 3 µM; 24 h
row,Structure (SMILES),Z-score
1,CC1=NCCc2c1[nH]c1cc(O)ccc21 [Harmalol·HCl·2H2O],inactive: -0.302
2,C=C[C@H]1CN2CC[C@H]1C[C@H]2[C@H](O)c1ccnc2ccccc12 [(-)-Cinchonidine],inactive: 0.198
3,COc1ccc2c(c1)[C@]13CCCC[C@@H]1[C@H](C2)N(C)CC3 [Dextromethorphan],inactive: 0.354
4,COC[C@H]1OC(=O)c2coc3c2[C@@]1(C)C1=C(C3=O)[C@@H]2CCC(=O)[C@@]2(C)C[C@H]1OC(C)=O [Wortmannin from Penicillium funiculosum],inactive: -0.385
5,Clc1cnc(Oc2ccc(Oc3ncc(Cl)cc3Cl)cc2)c(Cl)c1,inactive: -0.966
6,C=C[C@H]1CN2CC[C@H]1C[C@@H]2[C@@H](O)c1ccnc2ccccc12 [(+)-Cinchonine],inactive: -0.52
7,CC(Cc1ccc(O)cc1)NCC(O)c1cc(O)cc(O)c1 (stereo not given) [Fenoterol hydrobromide],inactive: -1.06
8,C1CCc2nnnn2CC1 [Pentylenetetrazole],inactive: 0.408
9,Cn1cnc(CCN)c1 [1-Methylhistamine dihydrochloride],inactive: -0.679
10,OC[C@@H]1CCCN2CCCC[C@H]12 [Lupinine],inactive: -0.166
11,CCCN1CCC[C@@H]2Cc3nc(N)ncc3C[C@H]21 [Quinelorane dihydrochloride],inactive: 0.351
12,CNCC(O)c1ccc(O)cc1 (racemic) [(+-)-Synephrine],inactive: -1.01
13,COCCCn1c(N)c(C(=O)NC2CCCC2)c2nc3ccccc3nc21,inactive: -1.84
14,CC(C)=CCCC1=CC(=O)c2c(O)ccc(O)c2C1=O [Deoxyshikonin],inactive: 0.806
15,O=c1[nH]c2ccccc2n1CCCN1CCC(n2c(=O)[nH]c3cc(Cl)ccc32)CC1 [Domperidone],inactive: -1.08
16,COc1ccc(CCNCc2ccc(OC)c3ccccc23)cc1,inactive: -0.416
17,C[C@H]1CCC[C@@H](O)CCCCCc2cc(O)cc(O)c2C(=O)O1 [β-Zearalanol],inactive: 0.509
18,CC(C)(C)c1cc(C(C)(C)C)c2c(c1)C(O)(C(F)(F)F)C(=O)O2 (racemic),inactive: 0.161
19,CN1[C@@H]2CCC[C@H]1CC(=O)C2 [Pseudopelletierine·HCl],inactive: 0.0175
20,N[C@@H](Cn1oc(=O)[nH]c1=O)C(=O)O [(+)-Quisqualic acid],inactive: 0.318
21,N[C@@H](Cn1oc(=O)[nH]c1=O)C(=O)O [Quisqualic acid],inactive: -0.349
22,NC(N)=NOCC[C@H](N)C(=O)O [L-Canavanine sulfate],inactive: -0.651

row,Structure (SMILES),Z-score
1,NC(N)=NOCC[C@H](N)C(=O)O [L-Canavanine],inactive: 1.28
2,S=C(NC1CCCCC1)N1CCC(c2cnc[nH]2)CC1 [Thioperamide maleate],inactive: -0.635
3,"CCCC(=O)O[C@@H]1[C@@H](C)[C@@]2(O)[C@@H](C=C(CO)C[C@]3(O)C(=O)C(C)=C[C@@H]23)[C@@H]2C(C)(C)[C@]12OC(=O)CCC [Phorbol 12,13-dibutyrate]",inactive: 0.682
4,C=C(C)[C@H]1CN[C@H](C(=O)O)[C@H]1CC(=O)O [Kainic acid],inactive: -0.0179
5,O=C(N[C@H]1CN2CCC1CC2)c1c[nH]c2ccsc2c1=O,inactive: -0.498
6,O=C(N[C@H]1CN2CCC1CC2)c1ccc(Cl)cc1,inactive: 0.572
7,"O=[N+]([O-])c1ccc2nc(N3CCNCC3)ccc2c1 [Quipazine, 6-nitro-  , maleate]",inactive: -0.0405
8,N#Cc1ccc(N2CCN(C(=O)COc3ccc4[nH]cc(CCN)c4c3)CC2)cc1 [Donitriptan monohydrochlorid e],inactive: -0.113
9,CC(C)[C@@H]1NC(=O)[C@H](C)OC(=O)[C@@H](C(C)C)NC(=O)[C@@H](C(C)C)OC(=O)[C@H](C(C)C)NC(=O)[C@H](C)OC(=O)[C@@H](C(C)C)NC(=O)[C@@H](C(C)C)OC(=O)[C@H](C(C)C)NC(=O)[C@H](C)OC(=O)[C@@H](C(C)C)NC(=O)[C@@H](C(C)C)OC1=O [Valinomycin],inactive: -0.391
10,CCCCCCC(=O)O[C@H]1CC[C@H]2[C@@H]3CCC4=CC(=O)CC[C@]4(C)[C@H]3CC[C@]12C [Testosterone Enanthate],inactive: -0.267
11,CC1=CC(=O)c2c(O)cccc2C1=O [Plumbagin],inactive: -0.898
12,CCN1C[C@]2(C)CC[C@H](OC)[C@@]34C1[C@]1(OCO[C@@]15C[C@H](OC)[C@H]1C[C@]3(O)[C@@H]5[C@H]1OC)[C@@H](OC(C)=O)[C@H]24 [Deltaline],inactive: -0.584
13,CC(C)=CCOc1c2occc2cc2ccc(=O)oc12 [Imperatorin],inactive: -0.563
14,N[C@@H](Cc1ccc(N(CCCl)CCCl)cc1)C(=O)O [Melphalan],inactive: 0.222
15,CC(Cc1ccc(OCC(=O)O)cc1)NCC(O)c1cccc(Cl)c1 (stereo not given),inactive: 3.6
16,CC[C@H]1CN2CCc3cc(OC)c(OC)cc3[C@@H]2C[C@@H]1C[C@H]1NCCc2cc(O)c(OC)cc21 [Cephaeline·HBr],inactive: -0.546
17,C=CCN1C[C@H](C)N([C@H](c2ccc(C(=O)N(CC)CC)cc2)c2cccc(OC)c2)C[C@H]1C,inactive: -0.275
18,N=C(N)NN [Aminoguanidine hydrochloride],inactive: -0.161
19,N=C(N)NN [Aminoguanidine hemisulfate],inactive: 0.653
20,CC(C)N(CCC(C(N)=O)(c1ccccc1)c1ccccn1)C(C)C (stereo not given) [Disopyramide phosphate],inactive: -0.0303
21,CC(C)N(CCC(C(N)=O)(c1ccccc1)c1ccccn1)C(C)C (stereo not given) [Disopyramide],inactive: 0.436
22,"C[N+]1([O-])[C@@H]2CC(OC(=O)[C@H](CO)c3ccccc3)C[C@H]1[C@@H]1O[C@@H]12 (single isomer, unassigned; (-)) [(-)-Scopolamine N-oxide]",inactive: 1.22

row,Structure (SMILES),Z-score
1,CN1[C@@H]2CC[C@H]1C[C@@H](OC(=O)[C@H](CO)c1ccccc1)C2 [Hyoscyamine],inactive: -0.746
2,CN1[C@@H]2CC[C@H]1C[C@@H](OC(=O)[C@H](CO)c1ccccc1)C2 [L-Hyoscyamine],inactive: -0.503
3,CN[C@@H]1C[C@@H](c2ccc(Cl)c(Cl)c2)c2ccccc21 [Indatraline hydrochloride],inactive: 0.448
4,"O=[N+]([O-])c1cc(O)c(O)c([N+](=O)[O-])c1 [3,5-  Dinitrocatechol]",inactive: -0.152
5,C[C@H]([C@H](O)CCC(C)(C)O)[C@H]1CC[C@@]2(O)C3=CC(=O)[C@@H]4C[C@@H](O)[C@@H](O)C[C@]4(C)[C@H]3CC[C@]12C [Ecdysone],inactive: -0.789
6,C#C[C@]1(O)CC[C@H]2[C@@H]3CCC4=Cc5nc6nc7ccccc7n6cc5C[C@]4(C)[C@H]3CC[C@@]21C,inactive: -0.117
7,NC(CCP(=O)(O)O)C(=O)O (racemic) [(±)-2-Amino-4-  phosphonobutyric acid],inactive: -0.0685
8,O=C1C[C@@H]2OCC=C3CN4CC[C@]56c7ccccc7N1[C@H]5[C@H]2[C@H]3C[C@H]46 [Strychnine·HCl],inactive: -0.577
9,CC[C@@]1(O)C(=O)OCc2c1cc1n(c2=O)Cc2cc3ccccc3nc2-1 [(S)-(+)-  Camptothecin],inactive: 3.15
10,N=C(N)c1ccc(CS(=O)(=O)F)cc1 [4-  Amidinophenylmetha nesulfonyl fluoride hydrochloride],inactive: 0.329
11,O=C(O)CNC(=O)c1c(O)c2ccccc2n(Cc2ccccc2)c1=O,active: -3.49
12,CC(CCc1ccccc1)NC(C)C(O)c1ccc(O)cc1 (stereo not given) [Nylidrin hydrochloride],inactive: -0.43
13,COc1cccc(C2(O)CCCCC2CN(C)C)c1 (stereo not given) [Tramadol·HCl],inactive: 0.134
14,CN1C[C@H](C(=O)N[C@]2(C)O[C@@]3(O)[C@@H]4CCCN4C(=O)[C@H](Cc4ccccc4)N3C2=O)C[C@@H]2c3cccc4[nH]cc(c34)C[C@H]21 [Dihydro ergotamine methanesulfonate],inactive: -0.989
15,CN1C[C@H](C(=O)N[C@]2(C)O[C@@]3(O)[C@@H]4CCCN4C(=O)[C@H](Cc4ccccc4)N3C2=O)C[C@@H]2c3cccc4[nH]cc(c34)C[C@H]21 [Dihydroergotamine Mesylate],active: -2.4
16,"CC1C2Cc3ccc(O)cc3C1(C)CCN2CC1CC1 (single isomer, unassigned; (+)) [(+)-Cyclazocine]",inactive: 0.0662
17,C[N+]1(C)[C@@H]2CC[C@H]1C[C@@H](OC(=O)C(CO)c1ccccc1)C2 (stereo not given in full) [Atropine methyl bromide],inactive: 0.463
18,C[N+]1(C)[C@@H]2CC[C@H]1C[C@@H](OC(=O)C(CO)c1ccccc1)C2 (stereo not given in full) [Atropine methyl nitrate],inactive: 0.0564
19,C/C=C1/C[C@@H](C)[C@@](C)(O)C(=O)OCC2=CCN3CC[C@@H](OC1=O)[C@@H]23 [Senecionine],inactive: 0.624
20,C[N+](C)(C)CCCCCCCCCC[N+](C)(C)C [Decamethonium dibromide],inactive: 0.21
21,CC1=C(O)C(=O)C=C2C1=CC=C1[C@@]2(C)CC[C@@]2(C)[C@@H]3C[C@](C)(C(=O)O)CC[C@]3(C)CC[C@]12C [Celastrol],inactive: -1.18

# Single entries from the list:
# Z-score, NC(CCP(=O)(O)O)C(=O)O (racemic) [(±)-2-Amino-4-  phosphonobutyric acid] is entered as inactive: -0.0685
# Z-score, CC(CCc1ccccc1)NC(C)C(O)c1ccc(O)cc1 (stereo not given) [Nylidrin hydrochloride] is entered as inactive: -0.43
# Z-score, C[N+]1(C)[C@@H]2CC[C@H]1C[C@@H](OC(=O)C(CO)c1ccccc1)C2 (stereo not given in full) [Atropine methyl nitrate] is entered as inactive: 0.0564
# Z-score, CN1C[C@H](C(=O)N[C@]2(C)O[C@@]3(O)[C@@H]4CCCN4C(=O)[C@H](Cc4ccccc4)N3C2=O)C[C@@H]2c3cccc4[nH]cc(c34)C[C@H]21 [Dihydro ergotamine methanesulfonate] is entered as inactive: -0.989
# Z-score, CC[C@@]1(O)C(=O)OCc2c1cc1n(c2=O)Cc2cc3ccccc3nc2-1 [(S)-(+)-  Camptothecin] is entered as inactive: 3.15
# Z-score, O=C1C[C@@H]2OCC=C3CN4CC[C@]56c7ccccc7N1[C@H]5[C@H]2[C@H]3C[C@H]46 [Strychnine·HCl] is entered as inactive: -0.577
